{"sequences": {"note": "Sequences of proteins named here, by UniProt entry; tags and fusion partners are left off.", "UniProt Q9WVA4": "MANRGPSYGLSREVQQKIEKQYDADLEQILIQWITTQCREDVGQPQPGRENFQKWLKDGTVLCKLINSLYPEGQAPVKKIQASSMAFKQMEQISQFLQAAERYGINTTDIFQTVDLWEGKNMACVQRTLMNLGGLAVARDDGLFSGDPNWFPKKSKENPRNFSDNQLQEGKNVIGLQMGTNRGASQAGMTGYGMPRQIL"}, "source": "paper PMC10760247", "target": "T1, fatty-acid-binding protein 5 (FABP5) (mouse (endogenous in activated CD8+ T cells from C57BL/6J mice)) (UniProt Q05816)", "T1 sequence": "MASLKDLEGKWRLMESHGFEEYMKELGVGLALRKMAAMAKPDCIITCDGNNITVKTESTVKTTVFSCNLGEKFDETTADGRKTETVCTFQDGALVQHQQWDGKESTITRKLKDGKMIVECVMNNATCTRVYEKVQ", "experiment": "co-IP; endogenous proteins in lysate of activated mouse CD8+ T cells (Pierce IP Lysis Buffer); goat anti-mouse FABP5 or rabbit anti-mouse Transgelin-2 antibody (isotype IgG controls) overnight at 4°C, Protein A/G magnetic beads; washed with 1X TBS with 0.05% tween-20 and 0.5M NaCl; western blot", "note": "No constants are given. Whether binding was seen depends on the method and setting. In cells and extracts the contact can be indirect. Some binding calls cover weakened binding; strength is not graded here.", "data": [{"substance": "Transgelin 2 (TAGLN2) (from UniProt Q9WVA4 1-199)", "values": [{"measurement": "binding", "value": "binds"}]}]}
